{"source": "PubChem BioAssay AID1224828 (NIAID, 2016)", "test": "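Knock-downs that increase or decrease LPS-induced p65 nuclear translocation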 (primary screen)", "cells": "mouse RAW264.7 G9 macrophage reporter cells (GFP-p65, Tnf promoter-mCherry)", "reagents": "siRNA pool against mouse genes, 100 nM", "duration": "2 days siRNA transfection, then 40 min LPS before fixation", "challenge": "LPS (Salmonella minnesota R595) at 10 ng/ml", "measurement": "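Imaged p65 nuclear translocation ratio, normalised to the plate median, converted to robust z-scores and averaged across two replicates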", "direction": "p65 translocation robust z-score: higher = more nuclear NF-kappaB p65 after LPS than the plate median; nuclear/cytoplasmic p65 ratio: higher = more nuclear NF-kappaB p65", "active means": "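Active if robust z is above 3.3 (negative regulators) or below -1.56, the Tlr4 control median (positive regulators); activity score 50 or more; control wells not called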", "meaning of the calls": "active = hit (p65 shift raised or lowered); inactive = no clear change", "note": "In all, the deposit lists about 17,000 reagents; below is a random part of them. 762 of all reagents (4.5%) were called active. 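Active calls include both raised and lowered p65 entry, mostly lowered; wells with fewer than 50 cells lack a z-score.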 The raw values are shown without normalisation."}
The first 2 records, to show the layout:
{"target gene": "Sec14l2 (SEC14-like lipid binding 2)", "p65 translocation robust z-score": -0.42, "nuclear/cytoplasmic p65 ratio, rep 1": 1.56, "nuclear/cytoplasmic p65 ratio, rep 2": 1.42, "low cell count flag": "enough cells to score", "Outcome": "inactive"}
{"target gene": "Fkbpl (FK506 binding protein-like)", "p65 translocation robust z-score": 0.38, "nuclear/cytoplasmic p65 ratio, rep 1": 1.44, "nuclear/cytoplasmic p65 ratio, rep 2": 1.46, "low cell count flag": "enough cells to score", "Outcome": "inactive"}

The listing, from the start:
{"target gene": "Sec14l2 (SEC14-like lipid binding 2)", "p65 translocation robust z-score": -0.42, "nuclear/cytoplasmic p65 ratio, rep 1": 1.56, "nuclear/cytoplasmic p65 ratio, rep 2": 1.42, "low cell count flag": "enough cells to score", "Outcome": "inactive"}
{"target gene": "Fkbpl (FK506 binding protein-like)", "p65 translocation robust z-score": 0.38, "nuclear/cytoplasmic p65 ratio, rep 1": 1.44, "nuclear/cytoplasmic p65 ratio, rep 2": 1.46, "low cell count flag": "enough cells to score", "Outcome": "inactive"}
{"target gene": "Golga2 (golgin A2)", "p65 translocation robust z-score": 0.47, "nuclear/cytoplasmic p65 ratio, rep 1": 1.63, "nuclear/cytoplasmic p65 ratio, rep 2": 1.69, "low cell count flag": "enough cells to score", "Outcome": "inactive"}
{"target gene": "Fzd8 (frizzled class receptor 8)", "p65 translocation robust z-score": 0.9, "nuclear/cytoplasmic p65 ratio, rep 1": 1.58, "nuclear/cytoplasmic p65 ratio, rep 2": 1.77, "low cell count flag": "enough cells to score", "Outcome": "inactive"}
{"target gene": "Apool (apolipoprotein O-like)", "p65 translocation robust z-score": -1.65, "nuclear/cytoplasmic p65 ratio, rep 1": 1.22, "nuclear/cytoplasmic p65 ratio, rep 2": 1.29, "low cell count flag": "enough cells to score", "Outcome": "active"}
{"target gene": "Or4a74 (olfactory receptor family 4 subfamily A member 74)", "p65 translocation robust z-score": 0.61, "nuclear/cytoplasmic p65 ratio, rep 1": 1.63, "nuclear/cytoplasmic p65 ratio, rep 2": 1.56, "low cell count flag": "enough cells to score", "Outcome": "inactive"}
{"target gene": "Dnali1 (dynein, axonemal, light intermediate polypeptide 1)", "nuclear/cytoplasmic p65 ratio, rep 1": 1.57, "nuclear/cytoplasmic p65 ratio, rep 2": 1.31, "low cell count flag": "fewer than 50 cells per well; well left out of scoring", "Outcome": "inactive"}
{"target gene": "Anxa1 (annexin A1)", "p65 translocation robust z-score": -0.04, "nuclear/cytoplasmic p65 ratio, rep 1": 1.66, "nuclear/cytoplasmic p65 ratio, rep 2": 1.57, "low cell count flag": "enough cells to score", "Outcome": "inactive"}
{"target gene": "Psmc6 (proteasome (prosome, macropain) 26S subunit, ATPase, 6)", "nuclear/cytoplasmic p65 ratio, rep 1": 1.1, "nuclear/cytoplasmic p65 ratio, rep 2": 1.51, "low cell count flag": "fewer than 50 cells per well; well left out of scoring", "Outcome": "inactive"}
{"target gene": "1700030K09Rik (RIKEN cDNA 1700030K09 gene)", "nuclear/cytoplasmic p65 ratio, rep 1": 1.13, "nuclear/cytoplasmic p65 ratio, rep 2": 1.51, "low cell count flag": "fewer than 50 cells per well; well left out of scoring", "Outcome": "inactive"}
{"target gene": "Ascl3 (achaete-scute family bHLH transcription factor 3)", "p65 translocation robust z-score": -0.23, "nuclear/cytoplasmic p65 ratio, rep 1": 1.49, "nuclear/cytoplasmic p65 ratio, rep 2": 1.56, "low cell count flag": "enough cells to score", "Outcome": "inactive"}
{"target gene": "Arrdc3 (arrestin domain containing 3)", "p65 translocation robust z-score": -1.24, "nuclear/cytoplasmic p65 ratio, rep 1": 1.35, "nuclear/cytoplasmic p65 ratio, rep 2": 1.57, "low cell count flag": "enough cells to score", "Outcome": "inactive"}
{"target gene": "Slc23a1", "p65 translocation robust z-score": 1.65, "nuclear/cytoplasmic p65 ratio, rep 1": 1.62, "nuclear/cytoplasmic p65 ratio, rep 2": 1.52, "low cell count flag": "enough cells to score", "Outcome": "inactive"}
{"target gene": "Ppp4r3b (protein phosphatase 4 regulatory subunit 3B)", "p65 translocation robust z-score": 0.26, "nuclear/cytoplasmic p65 ratio, rep 1": 1.54, "nuclear/cytoplasmic p65 ratio, rep 2": 1.65, "low cell count flag": "enough cells to score", "Outcome": "inactive"}
{"target gene": "Chml (choroideremia-like)", "p65 translocation robust z-score": -0.65, "nuclear/cytoplasmic p65 ratio, rep 1": 1.33, "nuclear/cytoplasmic p65 ratio, rep 2": 1.34, "low cell count flag": "enough cells to score", "Outcome": "inactive"}
{"target gene": "Or6c209 (olfactory receptor family 6 subfamily C member 209)", "nuclear/cytoplasmic p65 ratio, rep 1": 1.35, "nuclear/cytoplasmic p65 ratio, rep 2": 1.13, "low cell count flag": "fewer than 50 cells per well; well left out of scoring", "Outcome": "inactive"}
{"target gene": "Musk (muscle, skeletal, receptor tyrosine kinase)", "p65 translocation robust z-score": -0.6, "nuclear/cytoplasmic p65 ratio, rep 1": 1.48, "nuclear/cytoplasmic p65 ratio, rep 2": 1.3, "low cell count flag": "enough cells to score", "Outcome": "inactive"}
{"target gene": "Dyrk1b", "p65 translocation robust z-score": 0.52, "nuclear/cytoplasmic p65 ratio, rep 1": 1.73, "nuclear/cytoplasmic p65 ratio, rep 2": 1.48, "low cell count flag": "enough cells to score", "Outcome": "inactive"}
{"target gene": "Zfp628 (zinc finger protein 628)", "p65 translocation robust z-score": -1.04, "nuclear/cytoplasmic p65 ratio, rep 1": 1.35, "nuclear/cytoplasmic p65 ratio, rep 2": 1.07, "low cell count flag": "enough cells to score", "Outcome": "inactive"}
{"target gene": "Sesn1 (sestrin 1)", "p65 translocation robust z-score": -0.25, "nuclear/cytoplasmic p65 ratio, rep 1": 1.52, "nuclear/cytoplasmic p65 ratio, rep 2": 1.51, "low cell count flag": "enough cells to score", "Outcome": "inactive"}
{"target gene": "Cd24a (CD24a antigen)", "p65 translocation robust z-score": 0.01, "nuclear/cytoplasmic p65 ratio, rep 1": 1.54, "nuclear/cytoplasmic p65 ratio, rep 2": 1.84, "low cell count flag": "enough cells to score", "Outcome": "inactive"}
